Data: PubChem BioAssay AID328 (DTP/NCI, 2004)
The list is a part of this screen's results and no random one: it is rich in T/C values a quarter to a half above the control, in often repeated tests (any T/C) and in doses without a T/C. Further doses and runs are listed elsewhere. T/C gives the treated animals as a percentage of the vehicle group. Some entries give survivors of the animals treated and no T/C: the source holds a T/C of zero for them, seemingly a mark for toxic or unscored doses. Some doses without a T/C left all or most animals alive at the check, yet need not have been tolerated: the source hardly ever lists a survival T/C far under the control, and the zero likely stands for such cases as well. Counts of survivors are from the toxicity check (mostly the fifth day) where no day follows; animals may have died later. Schedule codes are those of the source, read here as Q, the interval in days (D) or hours (H), X, the number of doses. Some entries hold several experiments; the values are given in rising order. For survival time, this PubChem deposit counts one and a half times the control or more as active, and values a quarter to a half above the control carry no call in these data; other NCI protocols may use other cut-offs. Some T/C values carry the count of animals alive at the toxicity check (mostly the fifth day); without a count, all were alive then.

System: BDF1 mice, P388 leukemia ip, median survival T/C
Assay: NCI In Vivo Anticancer Drug Screen. Data for tumor model P388 Leukemia (intraperitoneal) in B6D2F1 (BDF1) mice
Conditions: T/C endpoint: median survival time, higher T/C = longer survival
Experimental: The antitumor activity of compounds was measured in mice bearing transplantable tumors. Survival or tumor size were measured and the results are expressed as the measurement made in the treated group (T) divided by the measurement made in the vehicle treated control group (C). The tumor model used in this assay is P388 Leukemia (intraperitoneal) in B6D2F1 (BDF1) mice

[1] = dose: 100.0 mg/kg/injection, schedule: Q04DX003 (ip), vehicle: saline with Tween-80
[2] = dose: 100.0 mg/kg/injection, schedule: Q01DX009 (ip), vehicle: saline with Tween-80
[3] = dose: 200.0 mg/kg/injection, schedule: Q01DX009 (ip), vehicle: saline with Tween-80
[4] = dose: 400.0 mg/kg/injection, schedule: Q01DX009 (ip), vehicle: saline with Tween-80
[5] = dose: 100.0 mg/kg/injection, schedule: Q01DX009 (ip), vehicle: Klucel (hydroxypropylcellulose) (HPC)
[6] = dose: 200.0 mg/kg/injection, schedule: Q01DX009 (ip), vehicle: saline

For O=NN(CCCl)C(=O)Nc1cccc(O)c1, the T/C (dose: 9.6 mg/kg/injection, schedule: Q04DX003 (ip), vehicle: Klucel (hydroxypropylcellulose) (HPC)) was 133 % of control, the T/C (dose: 14.0 mg/kg/injection, schedule: Q04DX003 (ip), vehicle: Klucel (hydroxypropylcellulose) (HPC)) was 141 % of control and the T/C (dose: 35.0 mg/kg/injection, schedule: Q01DX009 (ip), vehicle: Klucel (hydroxypropylcellulose) (HPC)) was 133 % of control. For the same compound, the T/C (dose: 50.0 mg/kg/injection, schedule: Q01DX009 (ip), vehicle: Klucel (hydroxypropylcellulose) (HPC)) was 145 % of control, the survivor count (dose: 75.0 mg/kg/injection, schedule: Q01DX009 (ip), vehicle: Klucel (hydroxypropylcellulose) (HPC)) was 4 of 6 and the survivor count (dose: 150.0 mg/kg/injection, schedule: Q04DX003 (ip), vehicle: saline) was 6 of 6. For the same compound, the survivor count (dose: 200.0 mg/kg/injection, schedule: Q04DX003 (ip), vehicle: Klucel (hydroxypropylcellulose) (HPC)) was 5 of 6.

CC(=O)C1=CC(=O)NC(=O)C1C(=O)CC(C)C (stereo unspecified) was tested, and the survivor count (dose: 6.25 mg/kg/injection, schedule: Q01DX009 (ip), vehicle: other) was 3 of 3, the survivor count (dose: 12.5 mg/kg/injection, schedule: Q01DX009 (ip), vehicle: other) was 3 of 3 and the survivor count (dose: 25.0 mg/kg/injection, schedule: Q01DX009 (ip), vehicle: other) was 0 of 3 and 3 of 3. For the same compound, the survivor count (dose: 100.0 mg/kg/injection, schedule: Q01DX009 (ip), vehicle: other) was 0 of 3, the survivor count (dose: 200.0 mg/kg/injection, schedule: Q01DX009 (ip), vehicle: other) was 0 of 3 and the survivor count (dose: 400.0 mg/kg/injection, schedule: Q01DX009 (ip), vehicle: other) was 0 of 3.

For COc1cc(C=NCCN=Cc2cc(OC)c(OC)c(OC)c2)cc(OC)c1OC, the survivor count (dose: 50.0 mg/kg/injection, schedule: Q04DX003 (ip), vehicle: saline with Tween-80) was 5 of 5 and the survivor count [1] was 6 of 6.

O/N=C(\c1ccccc1)c1ccccn1 was tested, and the survivor count [2] was 6 of 6.

O=CN(SSN(C=O)C1CCCCC1)C1CCCCC1 was tested, and the T/C [2] was 130 % of control, the T/C [3] was 131 and 138 % of control and the T/C [4] was 142 % of control.

For COc1ccc(OC)c(/C=C/C(=O)NCC(O)CO)c1 (stereo unspecified), the survivor count [3] was 5 of 6 and 6 of 6 and the survivor count [4] was 6 of 6.

Cc1oc2c(C)c3oc(=O)cc(C)c3cc2c1CCl was tested, and the T/C (dose: 50.0 mg/kg/injection, schedule: Q04DX002 (ip), vehicle: saline with Tween-80) was 133 % of control, the T/C (dose: 100.0 mg/kg/injection, schedule: Q04DX002 (ip), vehicle: saline with Tween-80) was 133 % of control and the T/C (dose: 200.0 mg/kg/injection, schedule: Q04DX002 (ip), vehicle: saline with Tween-80) was 140 % of control.

In the case of C[N+](C)(C)c1ccc2ccccc2n1, the T/C (dose: 12.5 mg/kg/injection, schedule: Q01DX001 (ip), vehicle: saline) is reported as 130 % of control.

Clc1ccc(C[P+](c2ccccc2)(c2ccccc2)c2ccccc2)c(Cl)c1 was tested, and the T/C (dose: 2.1 mg/kg/injection, schedule: Q01DX009 (ip), vehicle: saline) was 129 % of control, the T/C (dose: 3.3 mg/kg/injection, schedule: Q01DX009 (ip), vehicle: saline) was 125 [5 of 6 alive] and 130 % of control and the T/C (dose: 5.0 mg/kg/injection, schedule: Q01DX009 (ip), vehicle: saline) was 129 [5 of 6 alive], 130, 138 % of control. The T/C (dose: 7.5 mg/kg/injection, schedule: Q01DX009 (ip), vehicle: saline) was 125 % of control, the survivor count (dose: 10.0 mg/kg/injection, schedule: Q01DX009 (ip), vehicle: saline) was 5 of 6 and the survivor count (dose: 20.0 mg/kg/injection, schedule: Q01DX009 (ip), vehicle: saline) was 0 of 6. For the same compound, the survivor count (dose: 33.0 mg/kg/injection, schedule: Q01DX009 (ip), vehicle: saline) was 0 of 6, the survivor count (dose: 50.0 mg/kg/injection, schedule: Q01DX009 (ip), vehicle: saline) was 0 of 6 and the survivor count (dose: 75.0 mg/kg/injection, schedule: Q01DX009 (ip), vehicle: saline) was 0 of 6.

CC[n+]1cccc(NC(=O)c2ccc(NC(=O)c3ccc(C(=O)Nc4ccc(C(=O)Nc5ccc[n+](CC)c5)cc4)cc3)cc2)c1 was tested, and the T/C (dose: 0.66 mg/kg/injection, schedule: Q04DX003 (ip), vehicle: saline) was 126 % of control, the T/C (dose: 1.0 mg/kg/injection, schedule: Q04DX003 (ip), vehicle: saline) was 133 % of control and the T/C (dose: 1.5 mg/kg/injection, schedule: Q04DX003 (ip), vehicle: saline) was 133 % of control. For the same compound, the survivor count (dose: 100.0 mg/kg/injection, schedule: Q01DX009 (ip), vehicle: saline sonified) was 0 of 6, the survivor count (dose: 200.0 mg/kg/injection, schedule: Q01DX009 (ip), vehicle: saline sonified) was 0 of 6 and the survivor count (dose: 400.0 mg/kg/injection, schedule: Q01DX009 (ip), vehicle: saline sonified) was 0 of 6.

CCCCCC(CN(C)C)C(=O)/C=C/c1cccc(O)c1 (stereo unspecified) was tested, and the survivor count [3] was 2 of 6.

CCOc1nsc(OCC)n1 was tested, and the survivor count (dose: 400.0 mg/kg/injection, schedule: Q01DX001 (ip), vehicle: Klucel (hydroxypropylcellulose) (HPC)) was 5 of 6.

With NC(=S)N/N=C/c1ccc(OC(=O)COc2ccccc2)cn1 the T/C (dose: 3.13 mg/kg/injection, schedule: Q01DX009 (ip), vehicle: saline with Tween-80) was 144 % of control, the T/C (dose: 6.25 mg/kg/injection, schedule: Q01DX009 (ip), vehicle: saline with Tween-80) was 149 % of control and the survivor count [3] was 6 of 6.

With COC1CCC(OC2C(C)C(O)(C(C)C(=O)O)OC(CC3CC(OC)C(C)C4(O3)OC(C)(C3CCC(C5CCC(C6OC(C)(O)C(C)C(OC)C6C)O5)O3)C(OC)C4C)C2(C)OC)OC1C (stereo unspecified) the survivor count (dose: 2.5 mg/kg/injection, schedule: Q01DX009 (ip), vehicle: saline with Tween-80) was 1 of 6, the survivor count (dose: 2.5 mg/kg/injection, schedule: Q01DX009 (ip), vehicle: saline) was 0 of 6 and the survivor count (dose: 5.0 mg/kg/injection, schedule: Q01DX009 (ip), vehicle: saline with Tween-80) was 0 of 6. For the same compound, the survivor count (dose: 10.0 mg/kg/injection, schedule: Q01DX009 (ip), vehicle: saline with Tween-80) was 0 of 6 and the survivor count (dose: 20.0 mg/kg/injection, schedule: Q01DX009 (ip), vehicle: saline with Tween-80) was 0 of 6.

CCCCCCCCCCCCCCCCn1/c(=N/N=C/c2ccccc2S(=O)(=O)O)sc2ccccc21 was tested, and the survivor count [5] was 5 of 6.

With NC(=S)N/N=C/c1ncccc1F the survivor count [1] was 2 of 6, the survivor count (dose: 200.0 mg/kg/injection, schedule: Q04DX003 (ip), vehicle: saline with Tween-80) was 1 of 6 and the survivor count (dose: 400.0 mg/kg/injection, schedule: Q04DX003 (ip), vehicle: saline with Tween-80) was 0 of 6.

COc1ccc(CC2c3cc(OC)c(OC)cc3CCN2C(C)=O)cc1OC (stereo unspecified) was tested, and the survivor count (dose: 100.0 mg/kg/injection, schedule: Q01DX005 (ip), vehicle: saline with Tween-80) was 5 of 6.

In the case of CO[C@H]1C[C@](C)(O)Cc2cc3c(c(O)c21)C(=O)c1c(O)cc2c(c1C3=O)O[C@@H]1O[C@@]2(C)[C@H](O)[C@@H](N(C)C)[C@@H]1O, the survivor count (dose: 83.3 mg/kg/injection, schedule: Q04DX003 (ip), vehicle: lactate) is reported as 7 of 8.

In the case of O=C1Oc2ccccc2C1=O, the survivor count [6] is reported as 6 of 6.

In the case of O=C(CCl)Nc1cc(Cl)ccc1N1CCCC1, the survivor count (dose: 75.0 mg/kg/injection, schedule: Q04DX003 (ip), vehicle: Klucel (hydroxypropylcellulose) (HPC)) is reported as 6 of 6, the survivor count [5] is reported as 0 of 6 and the survivor count (dose: 115.0 mg/kg/injection, schedule: Q04DX003 (ip), vehicle: Klucel (hydroxypropylcellulose) (HPC)) is reported as 3 of 6.

O=C(NC(Cc1nn[nH]n1)C(=O)OCc1ccccc1)OCc1ccccc1 (stereo unspecified) was tested, and the survivor count (dose: 300.0 mg/kg/injection, schedule: Q01DX009 (ip), vehicle: saline with Tween-80) was 4 of 6, the T/C [4] was 125 % of control and the survivor count [4] was 5 of 6. The survivor count (dose: 500.0 mg/kg/injection, schedule: Q01DX009 (ip), vehicle: saline with Tween-80) was 5 of 6 and the survivor count (dose: 600.0 mg/kg/injection, schedule: Q01DX009 (ip), vehicle: saline with Tween-80) was 3 of 6.

For CCN(CC)C(C)CN1c2ccccc2Sc2ccccc21 (stereo unspecified), the survivor count [6] was 2 of 6.
